This series relates to mice. Description: Oral administration acute toxicity in mice. The settings on record: male & female, tested form: racemate (erythro), hydrochloride, 2 mol.

Certain results were filed several times, with different values. This list holds those alone. There may be further records. Values given together do not match, cause unknown; some may be repeats, others may stem from another dose, organism or construct than stated.

Regarding `CCCC[C@@H]([C@H](O)c1ccc2c(Cl)c(OC)ccc2c1)N1CCN(Cc2ccccc2)CC1`, the “MLD (minimum lethal dosage)” value is “more than 2844.7 mg/kg and > 2844.7 mg/kg”.

The values above are taken from US8252796B2, “1-butyl-2-hydroxyaralkyl piperazine derivatives and the uses as anti-depression medicine thereof” (CSPC Zhonggi Pharmaceutical Technology (Shijiazhuang) Co. …, priority 2008, dated 2012).
